From publication PMC1978536, “MVB-12, a Fourth Subunit of Metazoan ESCRT-I, Functions in Receptor Downregulation” (PLoS ONE, 2007)
These are yes or no findings as the source states them, for the method shown. Binding seen in cells or lysates may run through a third protein. Some entries that bind do so weakly or less than the wild type. Where a sequence is shown, tags or fusion partners need not be part of it.

By UniProt entry, the sequences of proteins in these tests, tags left out.
UniProt Q99816: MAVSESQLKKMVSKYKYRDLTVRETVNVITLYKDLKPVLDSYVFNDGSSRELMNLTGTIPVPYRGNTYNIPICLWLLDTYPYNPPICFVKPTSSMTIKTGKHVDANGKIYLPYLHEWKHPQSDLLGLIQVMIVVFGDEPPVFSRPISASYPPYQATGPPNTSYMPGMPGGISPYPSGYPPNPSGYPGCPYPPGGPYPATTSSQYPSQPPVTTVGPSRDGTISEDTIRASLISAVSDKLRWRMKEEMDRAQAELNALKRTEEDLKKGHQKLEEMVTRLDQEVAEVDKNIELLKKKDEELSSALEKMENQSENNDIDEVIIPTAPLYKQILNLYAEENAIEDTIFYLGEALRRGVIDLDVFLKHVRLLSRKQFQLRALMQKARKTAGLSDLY

Target: T1, GFP:MVB12B (human) (UniProt Q9H7P6)
T1 sequence: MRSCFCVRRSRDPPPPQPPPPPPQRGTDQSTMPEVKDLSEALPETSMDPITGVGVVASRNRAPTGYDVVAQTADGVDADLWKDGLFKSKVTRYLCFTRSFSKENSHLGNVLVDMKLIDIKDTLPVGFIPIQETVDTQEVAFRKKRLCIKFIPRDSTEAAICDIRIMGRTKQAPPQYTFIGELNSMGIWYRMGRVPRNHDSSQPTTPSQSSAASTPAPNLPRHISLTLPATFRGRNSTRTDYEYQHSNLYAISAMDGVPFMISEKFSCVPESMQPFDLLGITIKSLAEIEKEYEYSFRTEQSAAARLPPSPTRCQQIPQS
Test: co-IP; extracts of HeLa cells transfected with GFP:MVB12A or GFP:MVB12B; immunoprecipitation with antibodies to GFP (GST antibodies as control); blot probed for TSG101

Substance: human TSG101 (endogenous) (from UniProt Q99816 1-390)
- binding: binds
